Assay results: PubChem BioAssay AID720504 (National Center for Advancing Translational Sciences (NCATS), 2013)
Among all 360,000 compounds or so, about 10,000 (2.8%) were called active. Inconclusive results, whose numbers are uncertain, are shown with a selection of clear calls. Calls come from the whole dose curve; as a rule, active = well fitted inhibition curve with a large enough effect; inconclusive = small, poorly fitted or top-dose-only effect; inactive = flat fitted curve, though single readings scatter. A potency beside an inconclusive call is a rough fit, not a confirmed value.

Protein sequences, listed by entry. Tags and fused reporters are not part of them.
UniProt P53350, whole entry, looked up: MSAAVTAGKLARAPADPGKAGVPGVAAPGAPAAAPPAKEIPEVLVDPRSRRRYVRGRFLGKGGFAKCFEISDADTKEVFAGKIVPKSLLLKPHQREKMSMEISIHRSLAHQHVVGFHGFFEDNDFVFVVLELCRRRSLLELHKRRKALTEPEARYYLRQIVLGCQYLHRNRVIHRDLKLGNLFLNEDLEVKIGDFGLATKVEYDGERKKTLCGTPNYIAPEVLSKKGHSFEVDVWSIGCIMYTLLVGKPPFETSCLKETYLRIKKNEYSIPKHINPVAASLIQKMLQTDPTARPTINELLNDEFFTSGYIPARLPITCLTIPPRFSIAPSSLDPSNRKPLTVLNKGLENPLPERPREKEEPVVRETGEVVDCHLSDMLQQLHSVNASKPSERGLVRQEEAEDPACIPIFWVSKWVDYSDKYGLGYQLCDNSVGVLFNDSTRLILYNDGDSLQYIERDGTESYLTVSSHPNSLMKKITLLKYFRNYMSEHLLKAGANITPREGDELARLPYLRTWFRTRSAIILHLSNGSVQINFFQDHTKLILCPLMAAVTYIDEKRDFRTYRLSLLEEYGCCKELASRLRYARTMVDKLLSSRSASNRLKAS

Biological target: Serine/threonine-protein kinase PLK1 (Homo sapiens) (UniProt P53350)
Test: qHTS for Inhibitors of PLK1-PDB (polo-like kinase 1 - polo-box domain): Primary Screen; note: nearly all actives have a fitted effect of over 65% in size; for max response, negative = inhibition: series mostly up to about 57 µM
Conditions: Plk1 PBD binding of FITC phosphopeptide, fluorescence polarization
% is set by controls: 0 for no effect and ±100 for the full control effect; potency is the fitted concentration of half-maximal effect.

Structure (SMILES) | Potency | max response, negative = inhibition
O=[N+]([O-])c1cccnc1Oc1cc(Cl)c(Cl)cc1Cl | active: 16.8 µM | 
O=C(O)Cn1c(CCS(=O)(=O)c2ccc(Br)cc2)nc2ccccc21 | inconclusive: 29.9 µM [inhibitor, partial curve] | 
O=C(/C=C/c1ccccc1[N+](=O)[O-])N1CCCCC1 | inconclusive: 26.7 µM [inhibitor, partial curve] | 
CC(c1ccccc1)N1CCN(C(=O)CCl)CC1 (stereo not given) |  | inactive: -3.29%
COc1cccc(C2(O)C(=O)Nc3ccccc32)c1 (stereo not given) |  | inactive: -8.46%
Cc1ccc(C2=NOC(=O)/C2=C\c2ccc(C)o2)cc1 | active: 0.752 µM | 
CON(C)S(=O)(=O)c1ccc2c(c1)NC(=O)C1CCCN21 (stereo not given) | inconclusive: 33.6 µM [inhibitor, partial curve] | 
Cc1ccc(NC(=O)COC(=O)c2ccccc2Nc2ccccc2)cc1 |  | inactive: 0.498%
O=C1C(Br)=C(c2ccccc2)C(c2ccccc2)=C1c1ccccc1 | active: 2.67 µM | 
Cc1nn(CC(=O)N2CCCCCC2)c(=O)c2cc3occc3n12 | inconclusive: 29.9 µM [inhibitor, single point] | 
Cc1cccc(CS(=O)(=O)Cc2ccc(C(=O)NC3CCCC3)o2)c1 | inconclusive: 26.7 µM [inhibitor, single point] | 
COc1cccc2cc(C(=O)C3=C(O)C(=O)N(c4cc(C)on4)C3c3cccs3)oc12 (stereo not given) | inconclusive: 23.8 µM [inhibitor, single point] | 
c1ccc2c(c1)CCN(c1nc3cc4c(cc3s1)OCO4)C2 | inconclusive: 16.8 µM [inhibitor, partial curve] | 
Cc1ccc(/C=C2\SC(=S)N(C(Cc3ccccc3)C(=O)O)C2=O)cc1 (stereo not given) | inconclusive: 26.7 µM [inhibitor, single point] | 
COc1ccc(CC(=O)Nc2ccc(-c3noc(-c4ccc(Cl)cc4)n3)cc2)cc1 |  | inactive: -4.88%
Cc1cc(C)c2c(-n3cccc3)c(C(=O)NNS(=O)(=O)c3ccc(Br)cc3)sc2n1 | inconclusive: 26.7 µM [inhibitor, single point] | 
Cc1ccc(-c2ccnc(=S)[nH]2)cc1 | inconclusive: 0.67 µM [inhibitor, full curve, poor fit] | 
CCCN(CC1CC1)C(=S)NC(=O)c1ccc(S(=O)(=O)N2CCOCC2)cc1 |  | inactive: -14.7%
N#Cc1cccc(S(=O)(=O)NCc2nnc3ccccn23)c1 | inconclusive: 29.9 µM [inhibitor, partial curve] | 
CC1CC(=O)C(C(C2=C(O)CC(C)CC2=O)c2ccccc2)=C(O)C1 (stereo not given) | active: 11.9 µM | 

Part of the list above in order of SMILES length, largest number first.
Structure (SMILES) | Potency | max response, negative = inhibition
Cc1cc(C)c2c(-n3cccc3)c(C(=O)NNS(=O)(=O)c3ccc(Br)cc3)sc2n1 | inconclusive: 26.7 µM [inhibitor, single point] | 
Cc1nn(CC(=O)N2CCCCCC2)c(=O)c2cc3occc3n12 | inconclusive: 29.9 µM [inhibitor, single point] | 
Cc1ccc(-c2ccnc(=S)[nH]2)cc1 | inconclusive: 0.67 µM [inhibitor, full curve, poor fit] | 
